Assay results reported in paper PMC9264838.
Results are given in words; binding and its absence hold for the method and conditions named. In cells and extracts the contact can be indirect. A yes stands for co-enrichment or nearness to the bait. Other partners may have been found.

By UniProt entry, the sequences of proteins in these tests, tags left out.
UniProt P08238: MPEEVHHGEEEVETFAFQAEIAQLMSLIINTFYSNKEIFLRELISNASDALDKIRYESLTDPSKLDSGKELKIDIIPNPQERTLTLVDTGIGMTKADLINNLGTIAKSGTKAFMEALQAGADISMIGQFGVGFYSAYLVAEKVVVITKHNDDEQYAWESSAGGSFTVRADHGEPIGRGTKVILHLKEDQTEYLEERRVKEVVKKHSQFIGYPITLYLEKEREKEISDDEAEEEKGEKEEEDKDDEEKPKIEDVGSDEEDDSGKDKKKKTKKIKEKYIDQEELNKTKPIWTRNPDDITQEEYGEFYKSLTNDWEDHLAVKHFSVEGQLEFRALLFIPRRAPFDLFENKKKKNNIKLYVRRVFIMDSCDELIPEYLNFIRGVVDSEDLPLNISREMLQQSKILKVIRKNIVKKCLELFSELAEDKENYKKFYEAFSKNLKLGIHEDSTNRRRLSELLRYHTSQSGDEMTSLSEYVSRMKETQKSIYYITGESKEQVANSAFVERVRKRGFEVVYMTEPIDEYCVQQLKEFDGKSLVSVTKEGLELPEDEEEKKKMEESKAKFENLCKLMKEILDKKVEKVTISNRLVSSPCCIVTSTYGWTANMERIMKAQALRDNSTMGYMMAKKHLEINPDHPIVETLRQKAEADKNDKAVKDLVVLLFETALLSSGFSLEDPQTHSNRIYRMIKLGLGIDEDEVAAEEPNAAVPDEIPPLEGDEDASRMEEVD
UniProt P08670: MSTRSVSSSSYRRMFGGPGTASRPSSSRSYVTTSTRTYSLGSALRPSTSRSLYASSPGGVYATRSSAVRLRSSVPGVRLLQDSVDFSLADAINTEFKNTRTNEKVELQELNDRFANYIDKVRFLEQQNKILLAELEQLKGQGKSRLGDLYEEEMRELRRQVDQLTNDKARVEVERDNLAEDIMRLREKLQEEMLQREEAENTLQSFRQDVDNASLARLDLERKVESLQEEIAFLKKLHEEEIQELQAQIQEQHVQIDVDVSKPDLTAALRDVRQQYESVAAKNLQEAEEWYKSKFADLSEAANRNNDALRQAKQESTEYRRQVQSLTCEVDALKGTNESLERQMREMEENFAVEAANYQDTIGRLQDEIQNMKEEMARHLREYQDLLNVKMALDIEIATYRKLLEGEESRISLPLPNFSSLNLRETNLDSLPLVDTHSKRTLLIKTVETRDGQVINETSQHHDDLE

Biological target: heat shock protein 90 beta (Hsp90ab1) (human (endogenous in C28/I2)) (UniProt P08238)
Assay: affinity purification with mass spectrometry; immunoprecipitation with an antibody against Hsp90ab1 on protein A sepharose, on-bead trypsin/LysC digestion, LC-MS/MS; sample named as tumor cells and their ECM; search against the Uniprot mouse protein database

In the case of vimentin (from UniProt P08670 1-466), the binding is reported as “binds”.
